Laboratory results: patent US20170044236A1
Results are given in words; binding and its absence hold for the method and conditions named. Some entries that bind do so weakly or less than the wild type. Tags and fused reporters may be left off the sequences shown.

Amino acid sequences for entries named in this document (tags omitted). A change or cut given only in a name is not applied to a line headed by its entry.
UniProt P06756: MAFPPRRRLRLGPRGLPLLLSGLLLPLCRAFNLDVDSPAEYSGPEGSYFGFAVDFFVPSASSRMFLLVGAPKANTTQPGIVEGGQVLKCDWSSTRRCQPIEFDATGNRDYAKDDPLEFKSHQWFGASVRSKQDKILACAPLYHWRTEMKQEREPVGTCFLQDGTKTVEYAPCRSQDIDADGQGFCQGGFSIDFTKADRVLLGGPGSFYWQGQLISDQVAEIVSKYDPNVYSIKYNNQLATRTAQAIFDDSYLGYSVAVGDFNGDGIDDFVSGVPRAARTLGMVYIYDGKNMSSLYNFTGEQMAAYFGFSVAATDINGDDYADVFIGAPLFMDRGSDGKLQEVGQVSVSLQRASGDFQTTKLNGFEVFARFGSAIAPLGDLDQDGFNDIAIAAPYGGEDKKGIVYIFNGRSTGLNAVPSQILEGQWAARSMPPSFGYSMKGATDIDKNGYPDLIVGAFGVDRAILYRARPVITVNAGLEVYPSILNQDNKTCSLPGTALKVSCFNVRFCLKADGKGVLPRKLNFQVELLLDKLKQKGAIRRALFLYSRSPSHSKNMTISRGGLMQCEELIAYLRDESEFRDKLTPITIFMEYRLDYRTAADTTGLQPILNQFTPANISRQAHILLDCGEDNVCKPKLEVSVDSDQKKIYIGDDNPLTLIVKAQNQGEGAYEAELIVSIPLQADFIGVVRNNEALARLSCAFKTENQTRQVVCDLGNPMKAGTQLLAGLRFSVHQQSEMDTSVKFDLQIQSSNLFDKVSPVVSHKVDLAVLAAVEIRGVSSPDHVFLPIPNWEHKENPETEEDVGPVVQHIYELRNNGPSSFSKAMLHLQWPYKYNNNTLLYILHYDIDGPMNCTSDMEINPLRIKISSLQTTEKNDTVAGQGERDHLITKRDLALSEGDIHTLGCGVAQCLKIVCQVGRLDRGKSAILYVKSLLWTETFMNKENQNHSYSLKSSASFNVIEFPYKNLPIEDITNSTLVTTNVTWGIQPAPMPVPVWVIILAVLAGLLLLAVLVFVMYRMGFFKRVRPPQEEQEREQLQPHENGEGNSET

Biological target: wild-type integrin αVβ3 on cells (K562-αVβ3, M21, HEK293T) (human) (UniProt P06756)
Experiment: flow cytometry on K562-αVβ3, Fc fusion in culture supernatant, anti-Fc detection, Ca2+/Mg2+

## GCPRPRGDNWPLTCSQDSDCLAGCVCGPNGFCG (Fc fusion, not shown: a dimerising Fc or GST; small tags and cut ends, cystine-knot disulfide bonds (pairing not given)) [knottin 2.5F (P/W)-Fc]
  binding: binds
